Data reported in publication PMC11385326.
Results are given in words; binding and its absence hold for the method and conditions named. Binding seen in cells or lysates may run through a third protein. These calls come from enrichment with a bait or labelling near it, and not all partners need be listed. For part of these data: Where a sequence is shown, tags or fusion partners need not be part of it. One block for each molecule: values may come before it.

The chains behind the UniProt entries cited, without tags or fusion partners.
UniProt Q96CW1: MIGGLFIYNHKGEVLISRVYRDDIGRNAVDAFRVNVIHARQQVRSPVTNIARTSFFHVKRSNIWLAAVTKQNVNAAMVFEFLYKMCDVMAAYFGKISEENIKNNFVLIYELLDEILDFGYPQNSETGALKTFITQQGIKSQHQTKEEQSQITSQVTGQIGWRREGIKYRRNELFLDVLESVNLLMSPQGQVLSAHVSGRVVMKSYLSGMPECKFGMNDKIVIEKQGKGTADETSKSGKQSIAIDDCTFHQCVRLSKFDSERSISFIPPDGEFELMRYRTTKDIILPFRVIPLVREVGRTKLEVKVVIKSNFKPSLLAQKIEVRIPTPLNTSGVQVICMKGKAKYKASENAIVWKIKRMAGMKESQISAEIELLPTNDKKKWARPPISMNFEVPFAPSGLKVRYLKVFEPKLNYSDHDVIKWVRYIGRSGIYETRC
UniProt Q8TCG2: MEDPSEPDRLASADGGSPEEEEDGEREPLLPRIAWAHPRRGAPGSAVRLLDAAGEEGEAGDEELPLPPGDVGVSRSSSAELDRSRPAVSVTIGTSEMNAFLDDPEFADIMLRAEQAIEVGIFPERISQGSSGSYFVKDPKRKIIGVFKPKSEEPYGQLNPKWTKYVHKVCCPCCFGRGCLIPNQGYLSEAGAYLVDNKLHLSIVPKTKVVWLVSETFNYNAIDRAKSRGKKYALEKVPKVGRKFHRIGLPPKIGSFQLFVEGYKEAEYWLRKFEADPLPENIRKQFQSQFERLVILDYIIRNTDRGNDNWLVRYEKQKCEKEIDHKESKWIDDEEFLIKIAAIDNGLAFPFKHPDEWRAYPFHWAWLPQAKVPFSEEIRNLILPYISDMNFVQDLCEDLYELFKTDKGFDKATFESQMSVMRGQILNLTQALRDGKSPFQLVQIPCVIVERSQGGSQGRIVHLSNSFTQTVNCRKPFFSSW

Assays:
[1] = target: T1, AP1µA^EN–TurboID–V5 (human (endogenous in HeLa)) (UniProt Q9BXS5); experiment: proximity labelling; TurboID knocked in at the µ subunits of AP-1 to AP-4 in living HeLa cells, 50 µM biotin for 24 h; RIPA lysate (30 min, 24 G needle), streptavidin magnetic beads, label-free quantitative LC-MS; relative intensities compared between the AP datasets (log2 fold change >1 or <-1, P<0.05), control biotin-treated WT HeLa; four replicates
T1 sequence: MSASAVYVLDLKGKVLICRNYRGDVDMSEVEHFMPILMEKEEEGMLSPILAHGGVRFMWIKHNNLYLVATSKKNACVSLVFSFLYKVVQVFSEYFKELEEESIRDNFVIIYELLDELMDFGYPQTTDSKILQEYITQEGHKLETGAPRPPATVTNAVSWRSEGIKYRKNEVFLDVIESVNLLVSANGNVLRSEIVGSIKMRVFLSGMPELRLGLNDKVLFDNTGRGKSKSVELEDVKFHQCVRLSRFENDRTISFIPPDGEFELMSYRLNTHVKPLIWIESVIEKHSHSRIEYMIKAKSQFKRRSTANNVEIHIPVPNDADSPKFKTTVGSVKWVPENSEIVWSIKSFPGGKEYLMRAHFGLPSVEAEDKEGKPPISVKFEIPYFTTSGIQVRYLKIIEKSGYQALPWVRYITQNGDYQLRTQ

[2] = target: T2, V5–TurboID–CLCa^EN (human (endogenous in HeLa)) (UniProt P09496); experiment: proximity labelling; V5–TurboID–CLCa knock-in in living HeLa cells, 50 µM biotin for 24 h; RIPA lysate, streptavidin magnetic beads, label-free quantitative LC-MS; compared with the AP1µA and AP2µ TurboID datasets and biotin-treated WT HeLa; four replicates
T2 sequence: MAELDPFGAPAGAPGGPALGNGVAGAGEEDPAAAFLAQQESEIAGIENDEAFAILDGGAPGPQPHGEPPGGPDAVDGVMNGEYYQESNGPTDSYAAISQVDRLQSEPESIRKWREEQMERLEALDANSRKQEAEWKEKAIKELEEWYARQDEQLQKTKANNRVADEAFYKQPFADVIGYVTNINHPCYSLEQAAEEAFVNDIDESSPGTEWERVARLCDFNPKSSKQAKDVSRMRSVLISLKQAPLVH

[3] = target: AP2µ^EN–TurboID–V5 (human (endogenous in HeLa)) (UniProt Q96CW1); experiment: proximity labelling; TurboID knocked in at the µ subunits of AP-1 to AP-4 in living HeLa cells, 50 µM biotin for 24 h; RIPA lysate (30 min, 24 G needle), streptavidin magnetic beads, label-free quantitative LC-MS; relative intensities compared between the AP datasets (log2 fold change >1 or <-1, P<0.05), control biotin-treated WT HeLa; four replicates
[4] = target: T3, AP4µ^EN–TurboID–V5 (human (endogenous in HeLa)), O00189; experiment: as above; conditions: remark: other sources report otherwise
T3 chain: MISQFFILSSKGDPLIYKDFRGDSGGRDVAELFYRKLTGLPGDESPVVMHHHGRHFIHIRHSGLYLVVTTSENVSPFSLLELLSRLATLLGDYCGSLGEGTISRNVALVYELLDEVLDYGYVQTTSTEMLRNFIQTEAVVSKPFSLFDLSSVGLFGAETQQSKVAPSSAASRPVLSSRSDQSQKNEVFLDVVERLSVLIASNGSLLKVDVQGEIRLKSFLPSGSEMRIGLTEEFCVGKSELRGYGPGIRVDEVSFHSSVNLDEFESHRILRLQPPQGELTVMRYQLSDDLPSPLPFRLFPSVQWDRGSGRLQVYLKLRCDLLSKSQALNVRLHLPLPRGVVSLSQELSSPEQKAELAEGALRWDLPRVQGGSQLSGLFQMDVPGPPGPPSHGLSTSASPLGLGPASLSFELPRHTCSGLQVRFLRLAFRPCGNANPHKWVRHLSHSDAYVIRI

[5] = target: T4, AP4µ^EN–TurboID–V5 (human (endogenous in HeLa)) (UniProt O00189); experiment: as above
T4 sequence: T3 chain

binding [1]: binds
Molecule: PI4-kinase PI4K2B (from UniProt Q8TCG2 1-481)

binding [2]: binds | binding [3]: binds
B1: protein numb homolog (protein, UniProt P49757 1-651)
chain: MNKLRQSFRRKKDVYVPEASRPHQWQTDEEGVRTGKCSFPVKYLGHVEVDESRGMHICEDAVKRLKAERKFFKGFFGKTGKKAVKAVLWVSADGLRVVDEKTKDLIVDQTIEKVSFCAPDRNFDRAFSYICRDGTTRRWICHCFMAVKDTGERLSHAVGCAFAACLERKQKREKECGVTATFDASRTTFTREGSFRVTTATEQAEREEIMKQMQDAKKAETDKIVVGSSVAPGNTAPSPSSPTSPTSDATTSLEMNNPHAIPRRHAPIEQLARQGSFRGFPALSQKMSPFKRQLSLRINELPSTMQRKTDFPIKNAVPEVEGEAESISSLCSQITNAFSTPEDPFSSAPMTKPVTVVAPQSPTFQANGTDSAFHVLAKPAHTALAPVAMPVRETNPWAHAPDAANKEIAATCSGTEWGQSSGAASPGLFQAGHRRTPSEADRWLEEVSKSVRAQQPQASAAPLQPVLQPPPPTAISQPASPFQGNAFLTSQPVPVGVVPALQPAFVPAQSYPVANGMPYPAPNVPVVGITPSQMVANVFGTAGHPQAAHPHQSPSLVRQQTFPHYEASSATTSPFFKPPAQHLNGSAAFNGVDDGRLASADRHTEVPTGTCPVDPFEAQWAALENKSKQRTNPSPTNPFSSDLQKTFEIEL

binding [4]: binds
B2: FAM160A1, Q05DH4 1-1040 (protein)
chain: MMSSVSTESKLQQAVSLQGVDPETCMIVFKNHWAQVVKILEKHDPLKNTQAKYGSIPPDEASAVQNYVEHMLFLLIEEQAKDAAMGPILEFVVSENIMEKLFLWSLRREFTDETKIEQLKMYEMLVTQSHQPLLHHKPILKPLMMLLSSCSGTTTPTVEEKLVVLLNQLCSILAKDPSILELFFHTSEDQGAANFLIFSLLIPFIHREGSVGQQARDALLFIMSLSAENTMVAHHIVENTYFCPVLATGLSGLYSSLPTKLEEKGEEWHCLLKDDWLLLPSLVQFMNSLEFCNAVIQVAHPLIRNQLVNYIYNGFLVPVLAPALHKVTVEEVMTTTAYLDLFLRSISEPALLEIFLRFILLHQHENVHILDTLTSRINTPFRLCVVSLALFRTLIGLHCEDVMLQLVLRYLIPCNHMMLSQRWAVKERDCYSVSAAKLLALTPVCCSSGITLTLGNQERDYILWSKCMHDTSGPVERPFPEAFSESACIVEYGKALDISYLQYLWEAHTNILRCMRDCRVWSALYDGDSPDPEMFLQSLTEEGSVSSACPVFGLPQQLPRKTGPQLAPRKDKSQTELEWDDSYDTGISSGADVGSPGPYDDLEVSGPPAPIDPPKHIQEMKKNALLLFKGSYIEESDFQDDVMVYRLCAEKDSEDMKDSQEEAARPPAEAQAEVQSVPINNGPLLSTQPETDSEEEWNRDNSDPFHSEPKEPKQEREPEAAPESNSELASPAPEAEHSSNLTAAHPESEELIAQYDQIIKELDSGAEGLMEQNYPTPDPLLLTKEEEGKEESKGEKEKEGKKELEDEEDDFDSFIAEMPAVETVPSPFVGRDEAAFASRHPVRTQSTPFTGPFISVVLSKLENMLENSLHVNLLLIGIITQLASYPQPLLRSFLLNTNMVFQPSVRSLYQVLASVKNKIEQFASVERDFPGLLIQAQQYLLFRVDMSDMTPAALTKDPIQEASRTGSGKNLLDGPPRVLQPFLTHRTKVAEAPPNLPLPVRNPMLAAALFPEFLKELAALAQEHSILCYKILGDFEDSCC

binding [5]: binds
B3: ATG9A (protein, UniProt Q7Z3C6 1-839)
chain: MAQFDTEYQRLEASYSDSPPGEEDLLVHVAEGSKSPWHHIENLDLFFSRVYNLHQKNGFTCMLIGEIFELMQFLFVVAFTTFLVSCVDYDILFANKMVNHSLHPTEPVKVTLPDAFLPAQVCSARIQENGSLITILVIAGVFWIHRLIKFIYNICCYWEIHSFYLHALRIPMSALPYCTWQEVQARIVQTQKEHQICIHKRELTELDIYHRILRFQNYMVALVNKSLLPLRFRLPGLGEAVFFTRGLKYNFELILFWGPGSLFLNEWSLKAEYKRGGQRLELAQRLSNRILWIGIANFLLCPLILIWQILYAFFSYAEVLKREPGALGARCWSLYGRCYLRHFNELEHELQSRLNRGYKPASKYMNCFLSPLLTLLAKNGAFFAGSILAVLIALTIYDEDVLAVEHVLTTVTLLGVTVTVCRSFIPDQHMVFCPEQLLRVILAHIHYMPDHWQGNAHRSQTRDEFAQLFQYKAVFILEELLSPIVTPLILIFCLRPRALEIIDFFRNFTVEVVGVGDTCSFAQMDVRQHGHPQWLSAGQTEASVYQQAEDGKTELSLMHFAITNPGWQPPRESTAFLGFLKEQVQRDGAAASLAQGGLLPENALFTSIQSLQSESEPLSLIANVVAGSSCRGPPLPRDLQGSRHRAEVASALRSFSPLQPGQAPTGRAHSTMTGSGVDARTASSGSSVWEGQLQSLVLSEYASTEMSLHALYMHQLHKQQAQAEPERHVWHRRESDESGESAPDEGGEGARAPQSIPRSASYPCAAPRPGAPETTALHGGFQRRYGGITDPGTVPRVPSHFSRLPLGGWAEDGQSASRHPEPVPEEGSEDELPPQVHKV

binding [5]: binds
B4: tepsin (protein, UniProt Q96N21 1-525)
chain: MAAAPPLRDRLSFLHRLPILLKGTSDDDVPCPGYLFEEIAKISHESPGSSQCLLEYLLSRLHSSSGHGKLKVLKILLYLCSHGSSFFLLILKRNSAFIQEAAAFAGPPDPLHGNSLYQKVRAAAQDLGSTLFSDTVLPLAPSQPLGTPPATGMGSQARPHSTLQGFGYSKEHGRTAVRHQPGQAGGGWDELDSGPSSQNSSQNSDLSRVSDSGSHSGSDSHSGASREPGDLAERVEVVALSDCQQELSLVRTVTRGPRAFLSREEAQHFIKACGLLNCEAVLQLLTCHLRGTSECTQLRALCAIASLGSSDLLPQEHILLRTRPWLQELSMGSPGPVTNKATKILRHFEASCGQLSPARGTSAEPGPTAALPGPSDLLTDAVPLPGSQVFLQPLSSTPVSSRSPAPSSGMPSSPVPTPPPDASPIPAPGDPSEAEARLAESRRWRPERIPGGTDSPKRGPSSCAWSRDSLFAGMELVACPRLVGAGAAAGESCPDAPRAPQTSSQRTAAKEPPGSEPSAFAFLNA
